Measured values as given in the supplement of paper PMC11732987, “Enantioselective OTUD7B fragment discovery through chemoproteomics screening and high-throughput optimisation” (Communications Chemistry, 2025).
This is one part of the list. The data scatter; read single values as rough.

Amino acid sequences for entries named in this document (tags omitted). A change or cut given only in a name is not applied to a line headed by its entry. Residues count along the entry.
UniProt P49916: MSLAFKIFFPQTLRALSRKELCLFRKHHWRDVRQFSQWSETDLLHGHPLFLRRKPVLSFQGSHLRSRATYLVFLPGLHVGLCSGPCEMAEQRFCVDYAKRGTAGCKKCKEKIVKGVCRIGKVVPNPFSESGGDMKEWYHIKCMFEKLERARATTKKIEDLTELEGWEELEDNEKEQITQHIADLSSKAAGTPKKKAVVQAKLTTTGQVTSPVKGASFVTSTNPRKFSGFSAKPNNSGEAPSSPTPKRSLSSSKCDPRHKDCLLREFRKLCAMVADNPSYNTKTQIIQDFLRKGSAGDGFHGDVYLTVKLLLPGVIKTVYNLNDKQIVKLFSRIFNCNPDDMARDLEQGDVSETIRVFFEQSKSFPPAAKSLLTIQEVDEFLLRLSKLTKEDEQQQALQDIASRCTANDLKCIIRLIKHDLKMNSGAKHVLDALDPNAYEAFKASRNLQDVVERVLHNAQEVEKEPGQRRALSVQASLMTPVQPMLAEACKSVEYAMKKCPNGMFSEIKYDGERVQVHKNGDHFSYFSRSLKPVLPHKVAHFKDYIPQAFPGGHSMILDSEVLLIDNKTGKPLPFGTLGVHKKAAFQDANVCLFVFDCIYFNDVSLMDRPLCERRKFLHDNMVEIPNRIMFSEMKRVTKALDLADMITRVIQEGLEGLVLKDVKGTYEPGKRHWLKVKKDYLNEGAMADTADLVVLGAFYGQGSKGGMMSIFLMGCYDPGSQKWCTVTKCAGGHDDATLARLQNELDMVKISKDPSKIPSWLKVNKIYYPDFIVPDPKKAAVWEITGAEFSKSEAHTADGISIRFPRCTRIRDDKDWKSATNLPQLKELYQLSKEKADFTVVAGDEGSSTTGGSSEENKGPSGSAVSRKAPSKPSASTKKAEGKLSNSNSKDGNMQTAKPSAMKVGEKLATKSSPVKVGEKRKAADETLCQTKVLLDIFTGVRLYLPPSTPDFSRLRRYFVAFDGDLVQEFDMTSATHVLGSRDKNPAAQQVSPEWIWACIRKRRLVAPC
UniProt O14686, 1259-1283: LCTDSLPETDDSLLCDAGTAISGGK
UniProt Q969R5: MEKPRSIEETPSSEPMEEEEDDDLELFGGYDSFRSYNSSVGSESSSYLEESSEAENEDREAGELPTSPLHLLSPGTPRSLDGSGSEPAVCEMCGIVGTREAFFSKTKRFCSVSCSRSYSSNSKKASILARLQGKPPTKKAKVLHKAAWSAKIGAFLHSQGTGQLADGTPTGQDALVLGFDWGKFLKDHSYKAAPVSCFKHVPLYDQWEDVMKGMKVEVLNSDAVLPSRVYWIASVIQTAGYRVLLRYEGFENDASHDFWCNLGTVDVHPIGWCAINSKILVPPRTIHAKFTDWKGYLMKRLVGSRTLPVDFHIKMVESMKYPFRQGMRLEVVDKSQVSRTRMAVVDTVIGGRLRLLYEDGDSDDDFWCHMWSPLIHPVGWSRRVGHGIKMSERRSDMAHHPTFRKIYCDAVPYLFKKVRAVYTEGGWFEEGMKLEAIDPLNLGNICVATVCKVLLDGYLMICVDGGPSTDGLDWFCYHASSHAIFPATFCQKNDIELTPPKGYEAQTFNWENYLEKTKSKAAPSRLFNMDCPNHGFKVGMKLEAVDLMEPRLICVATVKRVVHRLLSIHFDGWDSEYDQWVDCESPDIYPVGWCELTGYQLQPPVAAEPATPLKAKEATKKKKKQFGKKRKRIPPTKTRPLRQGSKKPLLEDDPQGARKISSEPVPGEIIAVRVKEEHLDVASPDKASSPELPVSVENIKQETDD
UniProt Q8NG31: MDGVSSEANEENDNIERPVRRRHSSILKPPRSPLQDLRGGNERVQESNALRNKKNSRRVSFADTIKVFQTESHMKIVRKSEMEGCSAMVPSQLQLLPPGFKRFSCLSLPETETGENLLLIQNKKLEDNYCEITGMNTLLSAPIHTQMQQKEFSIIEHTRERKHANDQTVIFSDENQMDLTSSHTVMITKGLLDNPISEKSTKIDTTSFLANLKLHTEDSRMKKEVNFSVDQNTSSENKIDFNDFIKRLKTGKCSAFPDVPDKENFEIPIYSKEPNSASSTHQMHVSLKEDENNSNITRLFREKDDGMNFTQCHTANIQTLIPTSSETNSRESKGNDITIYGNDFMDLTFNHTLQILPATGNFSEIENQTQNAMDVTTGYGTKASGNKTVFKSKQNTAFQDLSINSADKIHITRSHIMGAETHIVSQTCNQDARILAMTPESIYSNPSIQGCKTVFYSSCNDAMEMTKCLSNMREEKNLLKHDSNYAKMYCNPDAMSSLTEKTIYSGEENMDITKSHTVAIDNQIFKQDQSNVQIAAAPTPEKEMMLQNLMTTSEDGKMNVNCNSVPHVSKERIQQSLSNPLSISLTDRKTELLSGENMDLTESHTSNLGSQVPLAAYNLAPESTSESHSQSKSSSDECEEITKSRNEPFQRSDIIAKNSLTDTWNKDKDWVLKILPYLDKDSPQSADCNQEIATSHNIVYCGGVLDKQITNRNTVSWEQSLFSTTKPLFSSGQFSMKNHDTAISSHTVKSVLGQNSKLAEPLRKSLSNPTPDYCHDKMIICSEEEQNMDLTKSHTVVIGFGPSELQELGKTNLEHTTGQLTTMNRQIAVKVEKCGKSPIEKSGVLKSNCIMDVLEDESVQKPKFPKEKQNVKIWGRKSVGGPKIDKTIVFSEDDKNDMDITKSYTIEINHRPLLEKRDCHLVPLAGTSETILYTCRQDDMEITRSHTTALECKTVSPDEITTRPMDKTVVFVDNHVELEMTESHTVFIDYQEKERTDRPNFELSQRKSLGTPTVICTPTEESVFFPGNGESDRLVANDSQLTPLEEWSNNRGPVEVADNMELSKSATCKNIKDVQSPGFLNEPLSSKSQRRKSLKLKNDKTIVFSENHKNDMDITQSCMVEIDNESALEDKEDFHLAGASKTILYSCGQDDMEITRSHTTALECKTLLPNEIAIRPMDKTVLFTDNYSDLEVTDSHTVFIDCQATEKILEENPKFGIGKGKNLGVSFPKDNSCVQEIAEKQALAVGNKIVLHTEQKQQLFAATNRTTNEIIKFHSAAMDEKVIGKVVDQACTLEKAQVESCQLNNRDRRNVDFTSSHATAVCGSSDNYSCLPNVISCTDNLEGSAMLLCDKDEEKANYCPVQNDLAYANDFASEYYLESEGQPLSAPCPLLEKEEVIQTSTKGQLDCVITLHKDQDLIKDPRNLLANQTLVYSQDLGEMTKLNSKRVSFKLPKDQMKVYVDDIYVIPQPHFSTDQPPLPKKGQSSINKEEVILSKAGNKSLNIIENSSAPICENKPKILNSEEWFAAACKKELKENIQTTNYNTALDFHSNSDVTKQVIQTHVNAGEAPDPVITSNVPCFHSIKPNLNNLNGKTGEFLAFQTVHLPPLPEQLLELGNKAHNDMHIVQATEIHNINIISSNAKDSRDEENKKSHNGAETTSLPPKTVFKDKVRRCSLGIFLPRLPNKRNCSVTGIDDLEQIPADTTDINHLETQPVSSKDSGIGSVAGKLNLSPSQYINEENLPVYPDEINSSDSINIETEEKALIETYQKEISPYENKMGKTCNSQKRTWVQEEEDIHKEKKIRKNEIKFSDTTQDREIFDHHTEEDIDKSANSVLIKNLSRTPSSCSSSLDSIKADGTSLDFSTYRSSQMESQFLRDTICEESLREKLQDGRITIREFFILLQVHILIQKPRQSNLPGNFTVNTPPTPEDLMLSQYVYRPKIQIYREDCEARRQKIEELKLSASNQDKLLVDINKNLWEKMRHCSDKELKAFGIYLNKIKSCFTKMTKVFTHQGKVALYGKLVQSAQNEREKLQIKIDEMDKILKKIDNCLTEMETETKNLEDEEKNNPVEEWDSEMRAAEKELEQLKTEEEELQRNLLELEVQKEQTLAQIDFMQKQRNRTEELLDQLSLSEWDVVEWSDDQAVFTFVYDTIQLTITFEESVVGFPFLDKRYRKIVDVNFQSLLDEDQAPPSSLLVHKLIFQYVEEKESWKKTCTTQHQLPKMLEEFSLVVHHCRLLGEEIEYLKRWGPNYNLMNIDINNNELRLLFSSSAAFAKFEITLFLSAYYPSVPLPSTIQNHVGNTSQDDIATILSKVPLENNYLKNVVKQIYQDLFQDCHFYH
UniProt Q6P597: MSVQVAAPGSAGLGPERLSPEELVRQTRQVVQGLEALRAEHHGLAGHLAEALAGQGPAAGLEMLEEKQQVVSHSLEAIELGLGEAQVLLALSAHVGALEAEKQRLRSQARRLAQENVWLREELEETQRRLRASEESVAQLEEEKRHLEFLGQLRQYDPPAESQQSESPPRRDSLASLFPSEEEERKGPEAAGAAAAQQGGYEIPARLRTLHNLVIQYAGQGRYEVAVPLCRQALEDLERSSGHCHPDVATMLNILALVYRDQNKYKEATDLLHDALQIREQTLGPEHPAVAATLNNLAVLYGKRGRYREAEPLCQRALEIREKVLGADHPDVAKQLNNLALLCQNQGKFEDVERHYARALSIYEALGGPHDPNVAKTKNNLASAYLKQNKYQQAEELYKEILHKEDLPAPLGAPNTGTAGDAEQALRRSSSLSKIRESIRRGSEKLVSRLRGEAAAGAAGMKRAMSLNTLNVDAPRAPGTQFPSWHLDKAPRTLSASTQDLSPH
UniProt Q8NF37, 427-446: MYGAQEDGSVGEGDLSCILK
UniProt Q9NS86: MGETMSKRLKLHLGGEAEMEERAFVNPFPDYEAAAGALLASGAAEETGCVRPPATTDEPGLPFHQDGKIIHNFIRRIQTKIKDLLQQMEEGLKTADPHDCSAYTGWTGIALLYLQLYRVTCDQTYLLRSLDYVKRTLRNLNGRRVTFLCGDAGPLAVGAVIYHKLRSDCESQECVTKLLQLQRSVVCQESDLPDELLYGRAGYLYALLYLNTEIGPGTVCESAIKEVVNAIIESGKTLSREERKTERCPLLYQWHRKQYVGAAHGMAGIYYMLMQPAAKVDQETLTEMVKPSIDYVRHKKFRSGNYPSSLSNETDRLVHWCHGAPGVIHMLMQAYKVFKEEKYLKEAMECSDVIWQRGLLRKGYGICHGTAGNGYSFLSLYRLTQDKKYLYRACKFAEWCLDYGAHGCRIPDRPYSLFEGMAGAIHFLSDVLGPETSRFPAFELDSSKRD
UniProt Q9NSK0: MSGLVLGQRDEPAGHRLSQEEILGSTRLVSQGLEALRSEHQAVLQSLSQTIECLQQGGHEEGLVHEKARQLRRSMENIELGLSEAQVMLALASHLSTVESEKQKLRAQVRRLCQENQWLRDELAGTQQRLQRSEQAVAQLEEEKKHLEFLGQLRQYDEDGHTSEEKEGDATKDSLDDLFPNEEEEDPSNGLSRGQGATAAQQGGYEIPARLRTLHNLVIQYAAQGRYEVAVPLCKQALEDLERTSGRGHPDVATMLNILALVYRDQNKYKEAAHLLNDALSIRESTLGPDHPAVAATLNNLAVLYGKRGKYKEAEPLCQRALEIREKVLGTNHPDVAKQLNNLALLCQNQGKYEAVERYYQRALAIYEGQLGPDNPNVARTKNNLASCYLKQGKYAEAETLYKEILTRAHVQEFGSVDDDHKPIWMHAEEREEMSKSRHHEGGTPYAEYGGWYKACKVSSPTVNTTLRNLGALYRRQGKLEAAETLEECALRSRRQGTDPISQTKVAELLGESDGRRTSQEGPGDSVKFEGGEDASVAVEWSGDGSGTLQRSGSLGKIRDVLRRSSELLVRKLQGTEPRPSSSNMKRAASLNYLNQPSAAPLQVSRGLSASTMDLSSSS
UniProt Q92845: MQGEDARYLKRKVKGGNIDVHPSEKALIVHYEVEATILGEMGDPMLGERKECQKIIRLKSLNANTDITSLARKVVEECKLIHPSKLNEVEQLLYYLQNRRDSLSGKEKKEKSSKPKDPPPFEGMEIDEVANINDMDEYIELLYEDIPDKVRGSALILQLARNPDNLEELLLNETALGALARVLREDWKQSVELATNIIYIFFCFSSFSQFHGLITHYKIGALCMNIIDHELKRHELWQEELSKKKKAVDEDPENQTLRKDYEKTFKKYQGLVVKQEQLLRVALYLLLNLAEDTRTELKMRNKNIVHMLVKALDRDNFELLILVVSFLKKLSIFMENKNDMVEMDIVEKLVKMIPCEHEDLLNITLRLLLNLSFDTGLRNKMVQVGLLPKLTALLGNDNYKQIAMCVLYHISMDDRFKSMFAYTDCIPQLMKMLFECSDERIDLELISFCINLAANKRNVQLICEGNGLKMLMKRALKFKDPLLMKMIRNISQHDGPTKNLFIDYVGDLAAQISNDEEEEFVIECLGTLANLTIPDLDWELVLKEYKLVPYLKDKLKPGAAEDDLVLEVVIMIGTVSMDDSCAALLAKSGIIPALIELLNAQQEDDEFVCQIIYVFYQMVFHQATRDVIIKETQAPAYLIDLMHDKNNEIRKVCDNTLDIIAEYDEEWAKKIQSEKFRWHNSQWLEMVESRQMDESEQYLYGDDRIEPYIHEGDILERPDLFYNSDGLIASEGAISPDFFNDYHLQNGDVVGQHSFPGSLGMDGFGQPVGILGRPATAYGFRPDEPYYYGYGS

Columns and labels:
[1] = compound: ClCC(=O)N[C@@H]1CCCc2ccccc12; test: log2 mean competition ratio of IA-DTB cysteine labelling (DMSO/compound) (log2 ratio); higher = stronger cysteine engagement by compound; conditions: treatment time: 4 h, cell line lysate: HEK293T
Description: (§1)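 IA-DTB competitive cysteine chemoproteomics in HEK293T RIPA lysate. Lysates were treated with compound 29 or 30 at 50 or 200 µM for 4 h, then IA-DTB (500 µM, 1 h), trypsin-digested, NeutrAvidin-enriched and analysed by diaPASEF. Competition ratio = intensity DMSO / intensity compound (n=4 treated, n=64 DMSO); binding: mean log2 CR ≥ 1 and p ≤ 0.05 plus QC filters. Target is the cysteine site.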

[2] = compound: ClCC(=O)N[C@H]1CCCc2ccccc12; test: as above; conditions: treatment time: 4 h, cell line lysate: HEK293T
Description: as §1

Target	log2 mean competition ratio ([1]; 50 µM)	log2 mean competition ratio ([1]; 200 µM)	log2 mean competition ratio ([2]; 50 µM)	log2 mean competition ratio ([2]; 200 µM)
LIG3 C729 (UniProt P49916)	-0.00657	0.0945	–	–
KNTC1 C911 (UniProt P50748)	-0.252	0.85	–	–
KLHDC3 C213 (UniProt Q9BQ90)	0.257	0.204	–	–
LRBA C2675	0.102	-0.345	–	–
LRP1 C2605 (UniProt Q07954)	-0.0767	0.296	–	–
LRBA C1921	-0.0368	0.049	–	–
KMT2D C58 (UniProt O14686)	0.067	0.109	–	–
LPCAT3 C316 (UniProt Q6P1A2)	-0.328	-0.246	–	–
LNPEP C103 (UniProt Q9UIQ6)	-0.445	0.431	–	–
LIMD1 C472 (UniProt Q9UGP4)	-0.105	-0.285	–	–
KMT2D C4424 (UniProt O14686)	-0.0288	-0.339	–	–
LAS1L C169 (UniProt Q9Y4W2)	-0.178	0.0523	–	–
LARP4B C654 (UniProt Q92615)	0.039	0.105	–	–
L3MBTL2 C531 (UniProt Q969R5)	0.243	0.0615	–	–
LIG3 C270 (UniProt P49916)	0.303	-0.0284	–	–
LRCH2 C730	0.259	0.202	–	–
KNL1 C1529 (UniProt Q8NG31)	0.322	-0.0617	–	–
KLC3 C230 (UniProt Q6P597)	-0.0598	-0.0268	–	–
LENG8 C643 (UniProt Q96PV6)	-0.00968	-0.103	–	–
KNL1 C1847 (UniProt Q8NG31)	0.0987	0.144	–	–

Quoted from the listing:
For log2 mean competition ratio ([1]; 50 µM), KLHDC3 C213 (UniProt Q9BQ90) has 0.257
For log2 mean competition ratio ([1]; 200 µM), L3MBTL2 C531 (UniProt Q969R5) has 0.0615
For log2 mean competition ratio ([1]; 200 µM), LARP4B C654 (UniProt Q92615) has 0.105

(list continues)

Target	log2 mean competition ratio ([1]; 50 µM)	log2 mean competition ratio ([1]; 200 µM)	log2 mean competition ratio ([2]; 50 µM)	log2 mean competition ratio ([2]; 200 µM)
KMT2B C2540 (UniProt Q9UMN6)	-0.381	-0.174	–	–
LIMS1 C138 (UniProt P48059)	0.332	-0.178	–	–
KNL1 C638 (UniProt Q8NG31)	-0.259	0.14	–	–
LPCAT1 C443 (UniProt Q8NF37)	-0.218	-0.0881	–	–
KMT2A C456 (UniProt Q03164)	-0.0603	0.00465	–	–
KMT2D_(C1260,C1260,C1273,C1273) (UniProt O14686)	-0.219	0.265	–	–
LRP1 C2837 (UniProt Q07954)	-0.121	0.376	–	–
LGMN C219 (UniProt Q99538)	-0.0327	-0.215	–	–
LMO7 C98 (UniProt Q8WWI1)	0.39	-0.0516	–	–
LDLRAP1 C199 (UniProt Q5SW96)	-0.539	0.0801	–	–
LANCL2 C350 (UniProt Q9NS86)	-0.309	-0.318	–	–
KNL1 C2338 (UniProt Q8NG31)	-0.128	0.0257	–	–
KMT2C C2873 (UniProt Q8NEZ4)	0.0394	0.0971	–	–
KLC4 C318 (UniProt Q9NSK0)	-0.00981	0.649	–	–
KNL1 C1291 (UniProt Q8NG31)	-0.0652	0.167	–	–
KIFAP3 C463 (UniProt Q92845)	0.0433	0.391	–	–
LEMD3 C814 (UniProt Q9Y2U8)	-0.133	-0.0643	–	–
LRPPRC C848	-0.248	0.24	-0.728	0.239
KNTC1 C1107 (UniProt P50748)	0.216	-0.0408	–	–
KIF5B C7 (UniProt P33176)	-0.236	-0.132	0.142	0.0753
